Data taken from the supplement of paper PMC10849652.
Some of the results follow.

Amino acid sequences for entries named in this document (tags omitted). A change or cut given only in a name is not applied to a line headed by its entry.
UniProt Q9NRG7: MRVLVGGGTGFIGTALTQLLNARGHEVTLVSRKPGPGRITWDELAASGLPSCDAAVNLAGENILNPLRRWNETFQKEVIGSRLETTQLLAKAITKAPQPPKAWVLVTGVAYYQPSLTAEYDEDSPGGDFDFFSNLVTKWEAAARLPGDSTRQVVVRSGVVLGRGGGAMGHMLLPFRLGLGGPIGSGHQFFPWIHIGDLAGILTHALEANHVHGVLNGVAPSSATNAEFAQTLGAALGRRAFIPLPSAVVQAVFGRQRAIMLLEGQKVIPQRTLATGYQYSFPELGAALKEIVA
UniProt Q13296: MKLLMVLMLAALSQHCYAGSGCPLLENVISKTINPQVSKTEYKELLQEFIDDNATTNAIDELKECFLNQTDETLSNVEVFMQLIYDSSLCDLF
UniProt Q8WTV0: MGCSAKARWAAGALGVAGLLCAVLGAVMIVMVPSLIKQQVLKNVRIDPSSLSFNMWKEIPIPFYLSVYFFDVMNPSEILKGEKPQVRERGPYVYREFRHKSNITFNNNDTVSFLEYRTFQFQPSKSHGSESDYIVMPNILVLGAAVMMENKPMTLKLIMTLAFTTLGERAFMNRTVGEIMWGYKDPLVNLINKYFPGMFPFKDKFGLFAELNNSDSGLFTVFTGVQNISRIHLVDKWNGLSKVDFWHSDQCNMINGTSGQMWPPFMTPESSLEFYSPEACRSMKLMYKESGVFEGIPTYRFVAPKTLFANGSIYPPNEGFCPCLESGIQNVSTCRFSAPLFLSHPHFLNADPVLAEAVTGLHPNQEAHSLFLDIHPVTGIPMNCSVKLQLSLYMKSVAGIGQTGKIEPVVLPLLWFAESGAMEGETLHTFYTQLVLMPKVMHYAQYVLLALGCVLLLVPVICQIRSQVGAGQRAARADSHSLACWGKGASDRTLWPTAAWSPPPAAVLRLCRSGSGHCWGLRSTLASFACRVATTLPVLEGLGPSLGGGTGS
UniProt Q9Y6U3: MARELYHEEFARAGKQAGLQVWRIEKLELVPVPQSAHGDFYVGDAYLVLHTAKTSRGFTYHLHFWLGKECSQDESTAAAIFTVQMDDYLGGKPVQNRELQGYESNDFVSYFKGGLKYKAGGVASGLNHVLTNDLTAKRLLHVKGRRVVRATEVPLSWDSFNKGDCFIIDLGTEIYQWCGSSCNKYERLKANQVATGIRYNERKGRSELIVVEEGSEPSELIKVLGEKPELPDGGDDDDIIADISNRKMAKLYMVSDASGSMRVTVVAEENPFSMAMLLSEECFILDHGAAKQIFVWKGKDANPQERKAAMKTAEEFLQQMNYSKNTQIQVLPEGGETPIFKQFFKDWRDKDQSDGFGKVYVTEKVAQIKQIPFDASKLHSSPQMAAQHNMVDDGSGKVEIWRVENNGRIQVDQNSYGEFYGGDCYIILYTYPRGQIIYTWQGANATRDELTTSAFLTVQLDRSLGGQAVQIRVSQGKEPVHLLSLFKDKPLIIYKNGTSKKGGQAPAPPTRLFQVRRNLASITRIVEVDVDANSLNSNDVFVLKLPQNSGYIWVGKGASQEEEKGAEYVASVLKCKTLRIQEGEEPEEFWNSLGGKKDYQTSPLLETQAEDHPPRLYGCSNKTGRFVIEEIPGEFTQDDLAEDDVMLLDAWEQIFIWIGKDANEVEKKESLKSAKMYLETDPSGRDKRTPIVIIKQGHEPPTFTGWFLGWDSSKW
UniProt O00442: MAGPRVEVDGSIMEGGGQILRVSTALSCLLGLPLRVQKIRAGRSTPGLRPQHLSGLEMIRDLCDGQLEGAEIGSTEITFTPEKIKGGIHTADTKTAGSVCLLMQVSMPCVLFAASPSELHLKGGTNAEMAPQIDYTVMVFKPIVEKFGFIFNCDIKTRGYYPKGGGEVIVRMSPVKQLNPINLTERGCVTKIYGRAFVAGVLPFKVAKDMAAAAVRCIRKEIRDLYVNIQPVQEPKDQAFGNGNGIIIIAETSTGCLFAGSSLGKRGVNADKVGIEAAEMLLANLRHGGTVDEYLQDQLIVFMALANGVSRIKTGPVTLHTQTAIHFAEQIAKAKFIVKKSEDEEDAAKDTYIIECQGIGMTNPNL
UniProt O15127: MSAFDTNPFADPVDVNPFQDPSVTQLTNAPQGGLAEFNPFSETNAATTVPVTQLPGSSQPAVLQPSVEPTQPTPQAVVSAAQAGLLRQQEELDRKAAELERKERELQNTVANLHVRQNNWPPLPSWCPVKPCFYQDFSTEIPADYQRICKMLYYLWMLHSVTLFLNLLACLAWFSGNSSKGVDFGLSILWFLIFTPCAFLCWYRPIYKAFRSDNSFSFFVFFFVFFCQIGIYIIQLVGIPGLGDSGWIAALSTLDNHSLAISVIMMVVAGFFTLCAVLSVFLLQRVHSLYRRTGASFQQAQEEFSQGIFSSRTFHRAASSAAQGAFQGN
UniProt P25815: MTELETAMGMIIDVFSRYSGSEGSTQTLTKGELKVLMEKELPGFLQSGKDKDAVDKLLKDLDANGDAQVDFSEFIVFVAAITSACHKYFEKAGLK
UniProt Q99584: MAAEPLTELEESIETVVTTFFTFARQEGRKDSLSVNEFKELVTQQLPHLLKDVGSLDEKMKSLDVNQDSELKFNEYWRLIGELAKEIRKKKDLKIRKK
UniProt Q9Y265, whole entry, looked up: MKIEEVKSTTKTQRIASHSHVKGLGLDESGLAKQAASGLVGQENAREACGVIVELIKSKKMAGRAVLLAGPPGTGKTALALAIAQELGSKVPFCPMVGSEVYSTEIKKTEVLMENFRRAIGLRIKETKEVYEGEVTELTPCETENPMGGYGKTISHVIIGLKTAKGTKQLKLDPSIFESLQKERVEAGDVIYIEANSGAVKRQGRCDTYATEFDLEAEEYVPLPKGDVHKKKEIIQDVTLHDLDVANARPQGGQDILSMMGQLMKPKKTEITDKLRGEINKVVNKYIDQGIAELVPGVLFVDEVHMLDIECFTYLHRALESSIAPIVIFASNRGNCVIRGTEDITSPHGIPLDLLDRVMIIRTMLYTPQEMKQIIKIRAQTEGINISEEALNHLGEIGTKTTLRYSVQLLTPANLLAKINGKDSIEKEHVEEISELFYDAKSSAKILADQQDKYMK
UniProt P67812: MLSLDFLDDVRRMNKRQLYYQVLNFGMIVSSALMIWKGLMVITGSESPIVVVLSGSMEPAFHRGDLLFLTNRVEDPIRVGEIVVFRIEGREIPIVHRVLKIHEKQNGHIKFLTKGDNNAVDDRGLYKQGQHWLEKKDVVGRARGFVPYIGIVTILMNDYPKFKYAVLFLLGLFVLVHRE
UniProt O00422: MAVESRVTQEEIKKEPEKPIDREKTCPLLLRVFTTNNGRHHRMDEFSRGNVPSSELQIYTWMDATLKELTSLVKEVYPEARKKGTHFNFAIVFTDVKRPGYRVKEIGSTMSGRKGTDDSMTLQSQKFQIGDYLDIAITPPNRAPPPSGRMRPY
UniProt O75880: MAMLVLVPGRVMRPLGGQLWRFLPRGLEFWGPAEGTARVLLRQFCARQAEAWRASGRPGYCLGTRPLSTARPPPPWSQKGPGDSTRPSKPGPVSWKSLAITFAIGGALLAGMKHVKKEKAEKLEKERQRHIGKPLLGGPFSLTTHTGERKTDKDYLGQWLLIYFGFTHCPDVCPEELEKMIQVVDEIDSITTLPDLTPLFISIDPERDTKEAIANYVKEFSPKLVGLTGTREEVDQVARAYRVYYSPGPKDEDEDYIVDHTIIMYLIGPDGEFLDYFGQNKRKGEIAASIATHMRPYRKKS
UniProt Q8N488: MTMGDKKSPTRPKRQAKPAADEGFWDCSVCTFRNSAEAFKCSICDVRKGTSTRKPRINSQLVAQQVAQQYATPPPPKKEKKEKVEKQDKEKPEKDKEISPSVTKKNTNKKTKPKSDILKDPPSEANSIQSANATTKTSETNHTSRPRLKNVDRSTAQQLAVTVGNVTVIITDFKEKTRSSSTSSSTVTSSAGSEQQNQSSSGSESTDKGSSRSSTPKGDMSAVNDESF
UniProt Q6NW29: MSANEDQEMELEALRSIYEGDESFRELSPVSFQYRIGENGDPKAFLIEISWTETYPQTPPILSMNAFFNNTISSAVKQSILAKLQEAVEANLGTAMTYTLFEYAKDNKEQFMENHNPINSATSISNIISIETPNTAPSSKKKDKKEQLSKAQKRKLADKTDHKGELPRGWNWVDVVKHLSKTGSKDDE
UniProt Q15404: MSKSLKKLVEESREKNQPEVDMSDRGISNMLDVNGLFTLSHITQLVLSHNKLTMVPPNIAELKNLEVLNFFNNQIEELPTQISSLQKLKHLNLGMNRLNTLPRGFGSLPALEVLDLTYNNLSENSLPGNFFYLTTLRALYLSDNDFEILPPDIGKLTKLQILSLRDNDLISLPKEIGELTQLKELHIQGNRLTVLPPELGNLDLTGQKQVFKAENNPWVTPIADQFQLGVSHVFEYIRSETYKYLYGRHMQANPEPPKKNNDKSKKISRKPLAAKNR
UniProt Q9Y230, whole entry, looked up: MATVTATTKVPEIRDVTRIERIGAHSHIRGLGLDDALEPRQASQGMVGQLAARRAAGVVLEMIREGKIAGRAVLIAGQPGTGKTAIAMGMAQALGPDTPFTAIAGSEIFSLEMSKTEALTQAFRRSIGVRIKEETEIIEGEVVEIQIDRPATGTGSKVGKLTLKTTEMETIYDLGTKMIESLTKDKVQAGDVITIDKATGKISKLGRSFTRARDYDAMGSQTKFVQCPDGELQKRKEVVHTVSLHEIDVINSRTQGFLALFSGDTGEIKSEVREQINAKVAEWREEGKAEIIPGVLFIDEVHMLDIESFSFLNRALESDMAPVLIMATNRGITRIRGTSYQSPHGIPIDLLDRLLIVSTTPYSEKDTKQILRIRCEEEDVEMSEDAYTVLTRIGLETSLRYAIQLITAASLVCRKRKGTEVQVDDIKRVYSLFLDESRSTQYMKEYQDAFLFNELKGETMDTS
UniProt Q9UHR5: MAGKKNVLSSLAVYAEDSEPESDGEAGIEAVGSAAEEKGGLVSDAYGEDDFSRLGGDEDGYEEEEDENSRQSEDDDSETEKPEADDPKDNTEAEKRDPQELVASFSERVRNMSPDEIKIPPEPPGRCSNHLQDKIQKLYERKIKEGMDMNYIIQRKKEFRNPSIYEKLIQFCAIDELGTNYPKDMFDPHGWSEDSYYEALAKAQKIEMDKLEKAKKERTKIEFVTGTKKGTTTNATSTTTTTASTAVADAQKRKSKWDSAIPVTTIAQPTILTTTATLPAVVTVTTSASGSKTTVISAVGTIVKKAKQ
UniProt Q9BW04: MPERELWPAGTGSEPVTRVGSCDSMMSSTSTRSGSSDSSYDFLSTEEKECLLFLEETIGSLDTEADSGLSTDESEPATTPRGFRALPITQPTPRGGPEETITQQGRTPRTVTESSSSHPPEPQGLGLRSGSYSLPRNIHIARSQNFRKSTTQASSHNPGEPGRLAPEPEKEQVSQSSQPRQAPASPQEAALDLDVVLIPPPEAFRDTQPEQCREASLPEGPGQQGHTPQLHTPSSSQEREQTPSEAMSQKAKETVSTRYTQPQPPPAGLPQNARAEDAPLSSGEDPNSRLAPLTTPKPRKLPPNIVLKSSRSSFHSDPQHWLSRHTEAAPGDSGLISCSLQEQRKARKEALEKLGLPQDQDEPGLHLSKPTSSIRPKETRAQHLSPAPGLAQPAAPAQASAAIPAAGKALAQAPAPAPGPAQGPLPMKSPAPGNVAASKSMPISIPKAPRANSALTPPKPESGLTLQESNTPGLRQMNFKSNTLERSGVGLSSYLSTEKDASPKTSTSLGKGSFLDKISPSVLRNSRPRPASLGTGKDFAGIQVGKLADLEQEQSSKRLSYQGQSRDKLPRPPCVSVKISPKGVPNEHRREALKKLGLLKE
UniProt Q15437: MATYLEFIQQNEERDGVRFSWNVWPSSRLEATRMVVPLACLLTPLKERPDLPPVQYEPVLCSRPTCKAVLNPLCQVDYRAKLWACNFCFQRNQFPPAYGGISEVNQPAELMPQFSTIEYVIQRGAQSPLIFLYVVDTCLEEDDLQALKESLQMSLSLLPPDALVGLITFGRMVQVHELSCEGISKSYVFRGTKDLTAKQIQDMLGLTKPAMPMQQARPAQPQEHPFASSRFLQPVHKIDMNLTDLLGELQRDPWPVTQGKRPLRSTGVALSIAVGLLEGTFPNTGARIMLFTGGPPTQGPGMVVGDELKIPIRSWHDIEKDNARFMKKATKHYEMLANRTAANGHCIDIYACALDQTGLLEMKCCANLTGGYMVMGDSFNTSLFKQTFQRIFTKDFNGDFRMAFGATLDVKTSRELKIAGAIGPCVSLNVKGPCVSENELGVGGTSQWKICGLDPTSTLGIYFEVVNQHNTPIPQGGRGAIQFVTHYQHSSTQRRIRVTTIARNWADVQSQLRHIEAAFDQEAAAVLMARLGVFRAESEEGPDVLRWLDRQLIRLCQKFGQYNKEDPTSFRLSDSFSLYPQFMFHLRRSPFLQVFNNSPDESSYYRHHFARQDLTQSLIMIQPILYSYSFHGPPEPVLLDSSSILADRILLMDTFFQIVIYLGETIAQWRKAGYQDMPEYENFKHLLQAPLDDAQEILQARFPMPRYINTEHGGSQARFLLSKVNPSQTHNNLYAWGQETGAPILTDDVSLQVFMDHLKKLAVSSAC

Tests used:
Experiment in all cases: log2 fold change, soluble protein after heating vs DMSO (PISA); higher = thermal stabilisation; K562 cells, 10 uM, 30 min; active = over 0.2 and 3.5 SD of the protein, either way, in both replicates (recomputed)
[1] = compound: NC(=O)Nc1cc(-c2cccc(F)c2)sc1C(=O)N[C@H]1CCCNC1
Outline: (§1)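 Values are thermal stability changes relative to control samples and are taken from duplicates. They are stated as log2 fold changes. Before quantification by TMTpro 16plex LC-MS/MS with equalised channel sums, K562 cells at 2×10^6 cells/mL were treated with 10 μM compound for 30 min, heated in aliquots for 3 min across 48°C-58°C, pooled, extracted in PBS with 0.5% NP-40 at 4°C, and centrifuged at 21,000xg for 90 min to give the soluble supernatant.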

[2] = compound: NC(=O)c1cnc(N[C@@H]2CCCC[C@@H]2N)nc1Nc1cccc(-n2nccn2)c1
Outline: as §1

[3] = compound: NC1(c2ccc(-c3nc4ccn5c(=O)[nH]nc5c4cc3-c3ccccc3)cc2)CCC1
Outline: as §1

[4] = compound: NCC(=O)Nc1ccc(-n2nc(C(F)(F)F)cc2-c2ccc3c(ccc4ccccc43)c2)cc1
Outline: as §1

entinostat = compound: Nc1ccccc1NC(=O)c1ccc(CNC(=O)OCc2cccnc2)cc1 [entinostat]
Outline: as §1

vorinostat = compound: O=C(CCCCCCC(=O)Nc1ccccc1)NO [vorinostat]
Outline: as §1

citarinostat = compound: O=C(CCCCCCNC(=O)c1cnc(N(c2ccccc2)c2ccccc2Cl)nc1)NO [citarinostat]
Outline: as §1

silmitasertib = compound: O=C(O)c1ccc2c(c1)nc(Nc1cccc(Cl)c1)c1ccncc12 [silmitasertib]
Outline: as §1

[5] = compound: O=C1NC(=O)C(c2cnc3ccccn23)=C1c1cn2c3c(cc(F)cc13)CN(C(=O)N1CCCCC1)CC2
Outline: as §1

[6] = compound: c1cc(OCCN2CCCCC2)cc(-c2n[nH]c3ccc(-c4nnc[nH]4)cc23)c1
Outline: as §1

entospletinib = compound: c1cn2cc(-c3ccc4cn[nH]c4c3)nc(Nc3ccc(N4CCOCC4)cc3)c2n1 [entospletinib]
Outline: as §1

Measured: log2 fold change

SDR39U1 (UniProt Q9NRG7)
inactive: [1] -0.014 | [2] 0.095 | [3] 0.392 | [4] 0.518 | entinostat -0.118 | vorinostat -0.077 | citarinostat 0.024 | silmitasertib 0.162 | [5] 0.294 | [6] 0.265 | entospletinib 0.611

SCGB2A2 (UniProt Q13296)
inactive: [1] 1.22 | [2] 0.505 | [3] -0.047 | [4] 0.536 | entinostat 0.448 | vorinostat 0.269 | citarinostat -0.126 | silmitasertib -0.189 | [5] 0.204 | [6] 0.464 | entospletinib 0.085

SCARB1 isoform 2 (UniProt Q8WTV0)
inactive: [1] -0.05 | [2] -0.029 | [3] -0.034 | [4] -0.03 | entinostat -0.016 | vorinostat -0.026 | citarinostat 0.01 | silmitasertib 0.004 | [5] 0.064 | [6] -0.053 | entospletinib 0.007

RTF1 (UniProt Q92541)
inactive: [1] -0.002 | [2] -0.04 | [3] -0.062 | [4] -0.052 | entinostat 0.047 | vorinostat 0.057 | citarinostat 0.063 | silmitasertib -0.008 | [5] -0.107 | [6] 0.017 | entospletinib -0.003

SCIN (UniProt Q9Y6U3)
inactive: [1] -0.075 | [2] -0.224 | [3] 0.003 | [4] -0.011 | entinostat 0.022 | vorinostat 0.173 | citarinostat 0.004 | silmitasertib 0.033 | [5] -0.035 | [6] -0.067 | entospletinib 0.04

RTCA (UniProt O00442)
inactive: [1] 0.021 | [2] 0 | [3] -0.111 | [4] 0.02 | entinostat 0.067 | vorinostat 0.035 | citarinostat 0.044 | silmitasertib 0.011 | [5] -0.046 | [6] -0.014 | entospletinib 0.023

SCAMP2 (UniProt O15127)
inactive: [1] -0.007 | [2] 0.168 | [3] 0.001 | [4] 0.029 | entinostat -0.001 | vorinostat -0.027 | citarinostat 0.189 | silmitasertib -0.002 | [5] 0.109 | [6] -0.065

S100P (UniProt P25815)
inactive: [1] 0.144 | [2] 0.029 | [3] 0.025 | [4] 0.028 | entinostat 0.125 | vorinostat -0.163 | citarinostat -0.046 | silmitasertib -0.055 | [5] -0.208 | [6] 0.004 | entospletinib 0.021

S100A13 (UniProt Q99584)
inactive: [1] -0.02 | [2] -0.077 | [3] -0.061 | [4] -0.021 | entinostat 0.011 | vorinostat 0.016 | citarinostat 0.008 | silmitasertib -0.023 | [5] -0.044 | [6] -0.033 | entospletinib 0.019

SCAMP4 (UniProt Q969E2)
inactive: [1] -0.101 | [2] 0.041 | [3] 0.004 | [4] 0.014 | entinostat -0.079 | vorinostat -0.078 | citarinostat -0.047 | silmitasertib -0.024 | [5] -0.039 | [6] 0 | entospletinib 0.041

RUVBL1 (UniProt Q9Y265)
inactive: [1] 0.004 | [2] 0.008 | [3] 0.036 | [4] 0.028 | entinostat -0.06 | vorinostat -0.069 | citarinostat -0.024 | silmitasertib -0.035 | [5] 0.022 | [6] -0.007 | entospletinib 0.061

SEC11A isoform 3 (UniProt P67812)
inactive: [1] 0 | [2] -0.051 | [3] -0.074 | [4] -0.058 | entinostat -0.004 | vorinostat 0 | citarinostat 0.033 | silmitasertib 0 | [5] -0.028 | [6] -0.046 | entospletinib -0.039

SAP18 isoform 2 (UniProt O00422)
inactive: [1] 0.042 | [2] -0.067 | [3] 0.245 | [4] -0.062 | entinostat -0.156 | vorinostat -0.031 | citarinostat -0.055 | silmitasertib 0.182 | [5] 0.135 | [6] -0.014 | entospletinib 0.19

SCP2 (UniProt P22307)
inactive: [1] -0.048 | [2] -0.02 | [3] -0.022 | [4] -0.007 | entinostat -0.019 | vorinostat -0.009 | citarinostat 0.06 | silmitasertib -0.043 | [5] 0.028 | [6] 0.004 | entospletinib 0.011

SCO1 (UniProt O75880)
inactive: [1] -0.052 | [2] 0.107 | [3] -0.023 | [4] -0.037 | entinostat -0.005 | vorinostat 0.04 | citarinostat 0.049 | silmitasertib -0.03 | [5] -0.051 | [6] -0.014 | entospletinib -0.022

RYBP (UniProt Q8N488)
inactive: [1] -0.015 | [2] 0.044 | [3] 0.04 | [4] 0.013 | entinostat -0.011 | vorinostat -0.095 | citarinostat 0.021 | silmitasertib 0.079 | [5] -0.053 | [6] -0.055 | entospletinib -0.029

RWDD4 (UniProt Q6NW29)
inactive: [1] -0.031 | [2] -0.12 | [3] -0.109 | [4] -0.027 | entinostat 0.011 | vorinostat 0.03 | citarinostat 0.044 | silmitasertib -0.004 | [5] 0.055 | [6] -0.022 | entospletinib -0.072

RSU1 (UniProt Q15404)
inactive: [1] -0.019 | [2] -0.026 | [3] 0.036 | [4] 0.03 | entinostat -0.039 | vorinostat -0.061 | citarinostat 0.033 | silmitasertib -0.04 | [5] -0.078 | [6] -0.046 | entospletinib -0.019

Pulled one by one from the entries so far (two):
SCO1 (UniProt O75880)
inactive: [1] -0.052 | [2] 0.107 | [3] -0.023 | [4] -0.037 | entinostat -0.005 | vorinostat 0.04 | citarinostat 0.049 | silmitasertib -0.03 | [5] -0.051 | [6] -0.014 | entospletinib -0.022

SCP2 (UniProt P22307)
inactive: [1] -0.048 | [2] -0.02 | [3] -0.022 | [4] -0.007 | entinostat -0.019 | vorinostat -0.009 | citarinostat 0.06 | silmitasertib -0.043 | [5] 0.028 | [6] 0.004 | entospletinib 0.011

Following part:

SCAMP3 (UniProt O14828)
inactive: [1] 0.004 | [2] 0.011 | [3] 0.037 | [4] 0.028 | entinostat -0.022 | vorinostat -0.046 | citarinostat -0.016 | silmitasertib -0.039 | [5] -0.053 | [6] 0.058 | entospletinib 0.003

SDHB, A0A087WWT1
inactive: [1] -0.135 | [2] -0.077 | [3] 0.102 | [4] 0.017 | entinostat -0.142 | vorinostat 0.018 | citarinostat -0.053 | silmitasertib -0.148 | [5] 0.085 | [6] 0.021 | entospletinib 0.055

SACS (UniProt Q9NZJ4)
inactive: [1] 0.152 | [2] -0.027 | [3] 0.025 | [4] -0.18 | entinostat 0.071 | vorinostat 0.177 | citarinostat 0.076 | silmitasertib 0.149 | [5] 0.003 | [6] -0.032 | entospletinib -0.026

RUVBL2 (UniProt Q9Y230)
inactive: [1] 0.012 | [2] 0.013 | [3] 0.025 | [4] 0.075 | entinostat -0.055 | vorinostat -0.026 | citarinostat -0.013 | silmitasertib -0.029 | [5] -0.008 | [6] -0.021 | entospletinib 0.063

SAP30BP (UniProt Q9UHR5)
inactive: [1] -0.02 | [2] -0.003 | [3] 0.015 | [4] 0.007 | entinostat 0.023 | vorinostat -0.061 | citarinostat 0.02 | silmitasertib 0.032 | [5] -0.055 | [6] -0.079 | entospletinib 0.027

SCAP (UniProt Q12770)
inactive: [1] 0.043 | [2] 0.039 | [3] -0.071 | [4] -0.065 | entinostat 0.065 | vorinostat -0.023 | citarinostat 0.015 | silmitasertib 0.068 | [5] 0.021 | [6] -0.099 | entospletinib -0.018

SCAF4 (UniProt O95104)
inactive: [1] -0.017 | [2] 0.016 | [3] -0.196 | [4] -0.025 | entinostat -0.003 | vorinostat 0.028 | citarinostat -0.044 | silmitasertib 0.025 | [5] -0.044 | [6] -0.121 | entospletinib 0.088

SARG (UniProt Q9BW04)
inactive: [1] 0.007 | [2] 0.024 | [3] -0.04 | [4] -0.066 | entinostat -0.012 | vorinostat 0.07 | citarinostat 0.034 | silmitasertib -0.014 | [5] -0.01 | [6] 0.039 | entospletinib -0.024

SEC23B (UniProt Q15437)
inactive: [1] 0.013 | [2] -0.01 | [3] -0.04 | [4] -0.014 | entinostat 0.009 | vorinostat -0.002 | citarinostat 0.052 | silmitasertib 0 | [5] -0.029 | [6] -0.025 | entospletinib -0.031
